Consider one substance from paper PMC5343593.

By UniProt entry, the sequences of proteins in these tests, tags left out. Where a name states a change or a piece, a line headed by the entry shows the natural chain unless it says otherwise.
UniProt Q9Y4E8: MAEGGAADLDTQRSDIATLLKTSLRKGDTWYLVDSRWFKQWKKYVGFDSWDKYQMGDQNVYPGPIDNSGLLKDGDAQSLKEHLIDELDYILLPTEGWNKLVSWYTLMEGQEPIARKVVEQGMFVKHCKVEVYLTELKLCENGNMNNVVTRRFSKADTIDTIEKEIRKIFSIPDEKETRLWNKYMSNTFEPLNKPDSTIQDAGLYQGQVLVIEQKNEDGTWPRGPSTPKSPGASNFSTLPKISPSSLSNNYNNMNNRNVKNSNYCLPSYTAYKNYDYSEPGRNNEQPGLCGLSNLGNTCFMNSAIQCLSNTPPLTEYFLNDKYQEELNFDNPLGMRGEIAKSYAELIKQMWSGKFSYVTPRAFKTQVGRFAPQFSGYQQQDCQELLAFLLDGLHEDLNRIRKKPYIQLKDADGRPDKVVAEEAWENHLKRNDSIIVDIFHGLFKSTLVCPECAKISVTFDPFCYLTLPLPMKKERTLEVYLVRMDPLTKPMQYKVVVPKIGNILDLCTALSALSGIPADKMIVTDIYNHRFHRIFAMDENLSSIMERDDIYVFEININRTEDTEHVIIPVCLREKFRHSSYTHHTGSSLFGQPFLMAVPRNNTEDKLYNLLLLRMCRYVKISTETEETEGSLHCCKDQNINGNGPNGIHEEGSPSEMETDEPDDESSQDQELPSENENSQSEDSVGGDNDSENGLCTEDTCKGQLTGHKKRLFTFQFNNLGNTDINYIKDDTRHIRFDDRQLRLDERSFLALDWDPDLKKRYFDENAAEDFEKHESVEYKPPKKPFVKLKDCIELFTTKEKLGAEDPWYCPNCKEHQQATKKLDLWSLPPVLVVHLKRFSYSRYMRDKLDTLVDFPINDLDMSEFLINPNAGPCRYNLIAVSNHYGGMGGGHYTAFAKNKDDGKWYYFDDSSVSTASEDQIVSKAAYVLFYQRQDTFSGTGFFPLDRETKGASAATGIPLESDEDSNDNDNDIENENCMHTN
UniProt Q63HN8: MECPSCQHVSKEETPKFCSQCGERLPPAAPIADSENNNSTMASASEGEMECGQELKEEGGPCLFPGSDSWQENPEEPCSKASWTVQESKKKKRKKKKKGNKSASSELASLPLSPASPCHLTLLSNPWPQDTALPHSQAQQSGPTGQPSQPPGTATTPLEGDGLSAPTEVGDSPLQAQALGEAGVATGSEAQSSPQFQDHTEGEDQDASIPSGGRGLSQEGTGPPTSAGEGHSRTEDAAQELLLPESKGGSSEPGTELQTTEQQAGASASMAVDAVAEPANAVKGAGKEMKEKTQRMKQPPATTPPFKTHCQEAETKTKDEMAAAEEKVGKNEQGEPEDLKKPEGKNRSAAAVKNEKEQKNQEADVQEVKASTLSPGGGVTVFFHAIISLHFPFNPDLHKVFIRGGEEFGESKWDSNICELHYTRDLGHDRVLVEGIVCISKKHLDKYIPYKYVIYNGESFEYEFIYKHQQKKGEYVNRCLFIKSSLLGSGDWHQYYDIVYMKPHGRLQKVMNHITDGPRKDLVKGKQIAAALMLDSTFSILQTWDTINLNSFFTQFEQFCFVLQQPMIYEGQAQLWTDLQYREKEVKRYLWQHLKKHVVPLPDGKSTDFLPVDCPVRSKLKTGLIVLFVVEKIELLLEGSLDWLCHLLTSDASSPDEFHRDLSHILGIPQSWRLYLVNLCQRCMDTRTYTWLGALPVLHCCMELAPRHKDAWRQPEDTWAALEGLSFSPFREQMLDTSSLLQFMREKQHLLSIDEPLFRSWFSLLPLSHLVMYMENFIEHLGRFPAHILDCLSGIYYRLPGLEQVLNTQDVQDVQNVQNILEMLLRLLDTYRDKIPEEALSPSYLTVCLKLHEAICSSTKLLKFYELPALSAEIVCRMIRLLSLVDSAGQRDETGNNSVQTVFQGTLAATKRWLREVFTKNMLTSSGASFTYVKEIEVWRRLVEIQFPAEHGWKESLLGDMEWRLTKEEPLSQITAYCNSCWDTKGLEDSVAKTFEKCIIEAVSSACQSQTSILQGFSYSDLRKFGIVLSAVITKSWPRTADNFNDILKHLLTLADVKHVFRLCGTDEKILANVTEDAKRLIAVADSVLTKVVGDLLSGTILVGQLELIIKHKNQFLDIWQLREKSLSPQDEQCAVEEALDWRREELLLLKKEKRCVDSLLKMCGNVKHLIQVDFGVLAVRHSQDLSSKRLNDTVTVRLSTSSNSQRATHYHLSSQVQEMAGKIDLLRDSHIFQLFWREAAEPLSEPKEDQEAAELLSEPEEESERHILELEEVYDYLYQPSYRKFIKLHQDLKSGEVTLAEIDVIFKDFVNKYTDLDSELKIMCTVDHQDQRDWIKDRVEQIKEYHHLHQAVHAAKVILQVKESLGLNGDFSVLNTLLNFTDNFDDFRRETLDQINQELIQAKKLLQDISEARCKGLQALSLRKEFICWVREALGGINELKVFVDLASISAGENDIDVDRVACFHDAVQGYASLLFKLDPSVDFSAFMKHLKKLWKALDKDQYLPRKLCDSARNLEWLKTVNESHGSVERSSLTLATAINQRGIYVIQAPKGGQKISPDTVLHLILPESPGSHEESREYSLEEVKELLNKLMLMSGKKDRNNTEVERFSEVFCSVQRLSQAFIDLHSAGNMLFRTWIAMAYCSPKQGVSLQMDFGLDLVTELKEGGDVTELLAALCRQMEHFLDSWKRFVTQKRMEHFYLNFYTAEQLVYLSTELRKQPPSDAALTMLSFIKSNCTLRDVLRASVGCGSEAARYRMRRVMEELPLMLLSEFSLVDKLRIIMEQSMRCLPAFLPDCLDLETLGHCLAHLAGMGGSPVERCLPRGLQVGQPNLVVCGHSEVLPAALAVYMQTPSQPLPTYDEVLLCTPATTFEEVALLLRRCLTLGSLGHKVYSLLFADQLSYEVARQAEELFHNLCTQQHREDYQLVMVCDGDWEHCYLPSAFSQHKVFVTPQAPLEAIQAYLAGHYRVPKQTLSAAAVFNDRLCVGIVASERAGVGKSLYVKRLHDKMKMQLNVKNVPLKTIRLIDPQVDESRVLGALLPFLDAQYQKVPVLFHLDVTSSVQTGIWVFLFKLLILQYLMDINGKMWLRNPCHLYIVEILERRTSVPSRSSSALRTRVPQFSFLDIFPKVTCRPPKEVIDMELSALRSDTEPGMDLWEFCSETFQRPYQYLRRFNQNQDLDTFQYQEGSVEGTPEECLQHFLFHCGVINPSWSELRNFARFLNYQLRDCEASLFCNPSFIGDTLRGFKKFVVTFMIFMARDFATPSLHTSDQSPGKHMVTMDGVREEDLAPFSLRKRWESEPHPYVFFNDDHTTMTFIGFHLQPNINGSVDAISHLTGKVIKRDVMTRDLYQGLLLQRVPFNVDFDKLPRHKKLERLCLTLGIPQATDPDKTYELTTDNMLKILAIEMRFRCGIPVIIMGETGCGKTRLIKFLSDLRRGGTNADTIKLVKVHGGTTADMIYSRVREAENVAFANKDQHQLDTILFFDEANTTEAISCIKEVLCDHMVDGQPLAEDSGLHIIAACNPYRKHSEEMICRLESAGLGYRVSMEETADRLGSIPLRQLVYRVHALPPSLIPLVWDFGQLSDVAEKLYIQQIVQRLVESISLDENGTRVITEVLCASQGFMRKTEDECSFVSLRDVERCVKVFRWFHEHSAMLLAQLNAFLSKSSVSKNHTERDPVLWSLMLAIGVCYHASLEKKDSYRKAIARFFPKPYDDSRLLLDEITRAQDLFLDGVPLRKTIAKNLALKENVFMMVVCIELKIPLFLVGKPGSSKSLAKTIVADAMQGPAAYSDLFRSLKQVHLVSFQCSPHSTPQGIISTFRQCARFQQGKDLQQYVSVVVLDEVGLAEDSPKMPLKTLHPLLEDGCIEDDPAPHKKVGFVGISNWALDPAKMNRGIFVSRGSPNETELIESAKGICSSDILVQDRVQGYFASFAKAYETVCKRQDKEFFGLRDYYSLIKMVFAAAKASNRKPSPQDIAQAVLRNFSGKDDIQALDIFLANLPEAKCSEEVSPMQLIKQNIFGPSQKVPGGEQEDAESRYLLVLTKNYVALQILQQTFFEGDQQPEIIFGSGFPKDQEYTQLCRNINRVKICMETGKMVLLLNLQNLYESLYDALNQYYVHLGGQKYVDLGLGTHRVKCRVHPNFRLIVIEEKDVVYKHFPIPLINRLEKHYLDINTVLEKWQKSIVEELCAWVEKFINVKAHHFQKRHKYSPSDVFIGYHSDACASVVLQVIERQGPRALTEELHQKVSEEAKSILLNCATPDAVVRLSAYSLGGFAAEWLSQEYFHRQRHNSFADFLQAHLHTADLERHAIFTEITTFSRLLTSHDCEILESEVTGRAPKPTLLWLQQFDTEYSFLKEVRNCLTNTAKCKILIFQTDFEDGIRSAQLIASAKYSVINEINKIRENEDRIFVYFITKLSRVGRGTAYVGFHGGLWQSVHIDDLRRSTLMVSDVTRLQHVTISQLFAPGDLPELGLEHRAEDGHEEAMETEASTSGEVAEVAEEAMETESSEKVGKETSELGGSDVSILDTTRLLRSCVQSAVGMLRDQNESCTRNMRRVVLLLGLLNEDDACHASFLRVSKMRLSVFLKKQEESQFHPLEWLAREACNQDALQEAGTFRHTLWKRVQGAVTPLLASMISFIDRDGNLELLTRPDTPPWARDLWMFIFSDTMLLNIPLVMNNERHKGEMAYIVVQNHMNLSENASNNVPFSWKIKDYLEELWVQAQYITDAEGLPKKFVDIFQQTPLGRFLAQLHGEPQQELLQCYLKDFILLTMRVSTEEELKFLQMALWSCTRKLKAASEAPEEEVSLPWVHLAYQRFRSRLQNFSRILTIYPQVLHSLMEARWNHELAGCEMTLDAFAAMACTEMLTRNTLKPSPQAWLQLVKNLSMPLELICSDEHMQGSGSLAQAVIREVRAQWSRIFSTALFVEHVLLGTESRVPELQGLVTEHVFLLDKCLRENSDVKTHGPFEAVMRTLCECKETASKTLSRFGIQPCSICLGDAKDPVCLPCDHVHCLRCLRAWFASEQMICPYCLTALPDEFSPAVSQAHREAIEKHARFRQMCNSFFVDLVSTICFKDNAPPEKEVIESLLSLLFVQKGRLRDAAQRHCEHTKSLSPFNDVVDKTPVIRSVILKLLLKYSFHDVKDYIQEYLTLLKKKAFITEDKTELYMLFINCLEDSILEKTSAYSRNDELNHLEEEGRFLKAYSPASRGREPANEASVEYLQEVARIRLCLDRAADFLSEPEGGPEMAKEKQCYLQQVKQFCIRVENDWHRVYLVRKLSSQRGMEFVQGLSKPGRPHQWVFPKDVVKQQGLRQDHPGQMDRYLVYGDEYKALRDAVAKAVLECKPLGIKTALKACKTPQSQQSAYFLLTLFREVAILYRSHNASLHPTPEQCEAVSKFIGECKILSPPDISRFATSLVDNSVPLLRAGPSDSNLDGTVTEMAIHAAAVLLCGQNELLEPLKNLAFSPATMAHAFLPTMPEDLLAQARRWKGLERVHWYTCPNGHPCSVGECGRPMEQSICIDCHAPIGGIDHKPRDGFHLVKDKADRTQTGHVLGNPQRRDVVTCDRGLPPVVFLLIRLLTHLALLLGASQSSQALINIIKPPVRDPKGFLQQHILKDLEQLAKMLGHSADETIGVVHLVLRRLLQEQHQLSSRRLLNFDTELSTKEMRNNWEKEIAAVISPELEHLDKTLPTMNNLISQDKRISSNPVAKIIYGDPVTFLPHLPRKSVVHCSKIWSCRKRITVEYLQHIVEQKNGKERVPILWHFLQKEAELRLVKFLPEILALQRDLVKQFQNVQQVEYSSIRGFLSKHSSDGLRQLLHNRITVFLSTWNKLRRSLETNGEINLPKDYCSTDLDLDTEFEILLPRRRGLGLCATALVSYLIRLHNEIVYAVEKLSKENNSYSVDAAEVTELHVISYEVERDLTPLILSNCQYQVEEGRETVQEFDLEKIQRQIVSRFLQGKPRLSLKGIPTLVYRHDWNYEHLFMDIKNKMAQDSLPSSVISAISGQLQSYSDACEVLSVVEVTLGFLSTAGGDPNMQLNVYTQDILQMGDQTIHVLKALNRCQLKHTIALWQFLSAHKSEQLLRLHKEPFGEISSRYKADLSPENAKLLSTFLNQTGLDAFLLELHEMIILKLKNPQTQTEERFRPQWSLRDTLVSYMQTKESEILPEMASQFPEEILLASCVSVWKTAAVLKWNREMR

The target of this assay is USP15Lmt-Myc (enzymatic mutant of USP15L with a Myc epitope tag at the C-terminus) (human) (UniProt Q9Y4E8). Nature of the assay: co-IP; Myc-tagged USP15L or mutant transiently expressed in HEK293T; digitonin HEPES buffer; anti-Myc antibody and protein G beads; endogenous mysterin detected by immunoblot.

Results are given in words; binding and its absence hold for the method and conditions named. Binding seen in cells or lysates may run through a third protein. Binding calls can cover weak binding; strength is not graded here.

On to “mysterin (moyamoya steno-occlusive disease-associated AAA+ and RING finger protein), endogenous (from UniProt Q63HN8 1-5207)”, for which the binding entry is given as “binds”.
